PubChem BioAssay AID2685 (National Center for Advancing Translational Sciences (NCATS), 2010)
This is one part of the list. Further columns of the screen follow, without active or inactive calls. Compounds called inactive in the main read-out are mostly missing here. Words in brackets tell the shape of the fitted curve; partial curves, single points and poor fits give uncertain potencies.

Assay: qHTS Assay for Lipid Storage Modulators in Drosophila S3 Cells;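 on cell number change: cells counted by Cell Tracker Red CMTPX staining in the red channel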
Settings: BODIPY lipid droplet fluorescence, 18-24 h; for cell number change: measured here: cell count max response, cells fed with added oleic acid
Summary of the method: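 Laser-scanning cytometry quantifies lipid droplet accumulation (500–530 nm total intensity; droplet/cell object ratio) in oleic acid-fed (400 uM added) Drosophila S3 cells treated with a concentration series. 20 uM Triacsin C defined 100% inhibition.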

[1] = measured here: lipid fluorescence (Fed channel) AC50, cells fed with added oleic acid
[2] = measured here: cell number channel AC50, cells fed with added oleic acid

Row | Compound | cell number change [%] | AC50 [1] | AC50 [2]
1 | Cc1ccc(S(=O)(=O)Nc2ccccn2)cc1[N+](=O)[O-] | 44.8 | 2.31 µM [falling, partial curve] | –
2 | CCOC(=O)c1cc2c(ccn2C)n1CC(=O)N1CCN(c2cccc(C(F)(F)F)c2)CC1 | -43.6 | – | 20.6 µM [falling, partial curve]
3 | COc1ccc(Cl)cc1NC(=O)CC(C)=O | 11.9 | 5.8 µM [falling, single point] | –
4 | CC1CN(C(=O)c2nn(C)cc2[N+](=O)[O-])CC(C)O1 (stereo unspecified) | -19.8 | 0.00517 µM [falling, full curve, poor fit] | –
5 | COc1ccccc1/C=C/C=N/n1c(-c2ccc(C)cc2)n[nH]c1=S | -5.65 | 3.26 µM [rising, single point] | –
6 | COC(=O)c1cccc(NC(=O)CCN2C(=O)C3CC=CCC3C2=O)c1 (stereo unspecified) | 12.4 | 1.03 µM [rising, full curve, poor fit] | –
7 | CCOC(=O)C(C)c1n[nH]c(=O)c2ccccc12 (stereo unspecified) | 20.6 | 6.51 µM [rising, single point] | –
8 | Cc1ccc(-n2cc(CNCCCn3cccn3)c(-c3cccc(C)c3)n2)cc1 | -40.8 | 0.651 µM [falling, full curve, poor fit] | 9.2 µM [falling, partial curve, poor fit]
9 | Cc1cc(NC(=O)CCS(=O)(=O)c2ccc(F)cc2)no1 | 3.21 | – | –
10 | O=C(CCCN1C(=O)C2CC=CCC2C1=O)Nc1ccccc1Cl (stereo unspecified) | -8.96 | – | –
11 | COc1ccc(/C=C/C(=O)c2ccc(O)cc2)cc1COc1ccc(F)cc1 | -46 | – | 29.1 µM [falling, single point]
12 | COc1ccc(NC(=O)CN2CCC(NC(=O)c3ccc(OC)cc3)CC2)cc1 | 3.23 | 1.16 µM [rising, full curve, poor fit] | –
13 | Cc1ccc(C2CC(=O)C(C=NCCN3CCN(CC(=O)Nc4cc(C)cc(C)c4)CC3)=C(O)C2)cc1 (stereo unspecified) | 2.84 | 0.411 µM [falling, partial curve, poor fit] | –
14 | COc1ccc(N2C(=O)CCC(C(=O)O)C2c2ccc(OC)c(OC)c2)cc1 (stereo unspecified) | -90.8 | – | 29.1 µM [falling, single point]
15 | C=CCNC(=O)C(=O)c1cccn1-c1ccsc1C(=O)OC | -54.8 | – | 29.1 µM [falling, single point]
16 | Cc1ccc(S(=O)(=O)NCCC(=O)NCc2ccc(Cl)cc2)cc1C | -32.9 | 29.1 µM [falling, single point] | 36.6 µM [falling, partial curve, poor fit]
17 | OCCN(CCO)c1nc(N2CCCCC2)c2nc(N(CCO)CCO)nc(N3CCCCC3)c2n1 | -28 | 11.6 µM [rising, partial curve] | –
18 | CNc1nc(SCC(=O)OC)nc(N2CCOCC2)n1 | -11 | – | –
19 | CC(NC(=O)c1ccccc1NC(=O)CN1CCN(c2ccccc2O)CC1)c1ccccc1 (stereo unspecified) | – | 6.51 µM [falling, single point] | –
20 | CN(C)c1ccc(-c2sc(Nc3ccccc3)n[n+]2-c2ccc(F)cc2)cc1 | -2.4 | 29.1 µM [falling, single point] | –

Row | Compound | cell number change [%] | AC50 [1] | AC50 [2]
21 | COC(=O)N/N=C(\C)c1ccc(-n2ccnc2)cc1 | -4.48 | 6.51 µM [rising, partial curve] | 2.59 µM [rising, partial curve]
22 | O=[N+]([O-])c1ccc(-c2c(-c3ccccc3)ncc3ccc(F)cc23)cc1 | -34.3 | 0.116 µM [falling, full curve, poor fit] | 0.82 µM [falling, partial curve, poor fit]
23 | CCC(C(=O)NCCCN1CCOCC1)n1c2ccccc2c2nc(=O)cc(C)n21 (stereo unspecified) | 6.19 | 6.51 µM [rising, single point] | –
24 | C=CCNC(=O)c1ccc(C)c(Br)c1 | – | – | 6.51 µM [rising, single point]
25 | O=[N+]([O-])c1ccc(O)c(-c2nc(-c3ccccc3)c(-c3cccs3)[nH]2)c1 | -39.8 | – | 20.6 µM [falling, single point]
26 | CCOC(=O)N1CCN(C(=O)COC(=O)c2ccc([N+](=O)[O-])cc2Cl)CC1 | 35 | – | 18.4 µM [rising, single point]
27 | Cc1ccc(S(=O)(=O)N2CCN(C(=O)COC(=O)C3CC3C)CC2)c(C)c1 (stereo unspecified) | 1.17 | 1.84 µM [rising, partial curve] | –
28 | O=C(Nc1ccccc1C(=O)NC(Cc1c[nH]c2ccccc12)C(=O)O)c1ccco1 (stereo unspecified) | 16.4 | – | –
29 | COc1ccc(N2CCN(S(=O)(=O)c3c(C)noc3/C=C/N(C)C)CC2)cc1 | -9.25 | 29.1 µM [rising, single point] | –
30 | CCOC(=O)C1Nc2ccc(Br)cc2C2C=CCC12 (stereo unspecified) | 0.338 | – | –
31 | COc1ccccc1CN(C)C(=O)c1cccc(S(=O)(=O)N2CCCC2)c1 | 19.8 | 29.1 µM [rising, single point] | –
32 | COC(CNC(=O)c1ccc2c(=O)n(Cc3ccc4c(c3)OCO4)c(=S)[nH]c2c1)OC | -98.7 | 14.6 µM [falling, partial curve] | 20.6 µM [falling, partial curve]
33 | COc1ccc(/C=C/C(=O)c2ccc(OC)cc2OC)c(OC)c1 | -17.3 | 0.326 µM [rising, full curve] | –
34 | O=C(Oc1cccnc1)c1ccccc1[N+](=O)[O-] | 99.6 | 6.51 µM [rising, partial curve] | 0.164 µM [rising, full curve]
35 | CC(=O)Nc1ccc(NC(=O)CSc2nnc(NC(=O)C3CC(=O)N(c4ccccc4)C3)s2)cc1 (stereo unspecified) | 12 | 0.461 µM [rising, full curve, poor fit] | –
36 | Nn1c(Cc2cccc3ccccc23)nnc1SC1CCOC1=O (stereo unspecified) | 20.9 | – | –
37 | Cc1nnc2ccc(-c3cccc(NS(C)(=O)=O)c3)nn12 | 29.9 | 29.1 µM [rising, single point] | –
38 | C=CCn1c(Cc2cccs2)nnc1SCC(=O)Nc1ccc(OC)cc1 | 3.7 | 2.06 µM [rising, single point] | –
39 | O=C(Cn1ncc2c1-c1ccccc1OC2)Nc1cccc(Cl)c1 | 2.31 | 0.82 µM [rising, full curve, poor fit] | –
40 | Cc1onc(-c2c(F)cccc2Cl)c1C(=O)NC1CCSC1=O (stereo unspecified) | 46.4 | – | 23.1 µM [rising, single point]

In another format: 3 of the compounds above.
Row	Compound	cell number change [%]	AC50 [1]	AC50 [2]
17	OCCN(CCO)c1nc(N2CCCCC2)c2nc(N(CCO)CCO)nc(N3CCCCC3)c2n1	-28	11.6 µM [rising, partial curve]	–
35	CC(=O)Nc1ccc(NC(=O)CSc2nnc(NC(=O)C3CC(=O)N(c4ccccc4)C3)s2)cc1 (stereo unspecified)	12	0.461 µM [rising, full curve, poor fit]	–
39	O=C(Cn1ncc2c1-c1ccccc1OC2)Nc1cccc(Cl)c1	2.31	0.82 µM [rising, full curve, poor fit]	–

Remaining list, next part.

Row | Compound | cell number change [%] | AC50 [1] | AC50 [2]
41 | CCn1c(SCC(=O)Nc2nc3ccc(OC)cc3s2)nc2c1c(=O)n(C)c(=O)n2C | -16.4 | 0.206 µM [rising, full curve, poor fit] | –
42 | O=C(O)c1ccccc1-c1ccc(/C=C2\SC(=O)N(c3ccccc3)C2=O)o1 | 12.9 | 0.651 µM [falling, full curve] | –
43 | COc1ccc(CNC(=O)CCCC(=O)n2nc(C)c3ccccc32)cc1 | -17.1 | 0.164 µM [rising, full curve, poor fit] | –
44 | CCCN(CCC)Cc1c(C(=O)N/N=C/c2cccs2)nnn1-c1nonc1N | 11.7 | 0.58 µM [rising, single point] | –
45 | Cc1cccc(C)c1-n1nnnc1S(=O)(=O)Cc1ccccc1Cl | 110 | 10.3 µM [rising, partial curve] | 16.4 µM [rising, single point]
46 | O=c1[nH][nH]cc1C=Nc1ccc(Oc2ccccc2)cc1 | -4.9 | – | –
47 | O=[N+]([O-])c1ccccc1S(=O)(=O)N(CC1CO1)c1ccccc1 (stereo unspecified) | 14.5 | – | 0.116 µM [rising, full curve, poor fit]
48 | Cc1c(CC(=O)NCCCC(=O)O)c(=O)oc2c(C)c3oc4c(c3cc12)CCCC4 | 17 | 0.164 µM [rising, full curve, poor fit] | 0.731 µM [rising, single point]
49 | COc1ccc(F)cc1S(=O)(=O)Nc1ccc2c(c1)OCO2 | 7.42 | – | –
50 | Cc1ccc(S(=O)(=O)N(Cc2ccc([N+](=O)[O-])cc2)C(=O)N2CCN(C)CC2)cc1 | -20.2 | 0.58 µM [falling, full curve] | 0.82 µM [falling, full curve]
51 | Cc1cc(Nc2ccccc2)nn1C(=O)c1ccccc1 | -41 | – | 2.91 µM [falling, partial curve, poor fit]
52 | COc1ccc(-c2cc(C(F)(F)F)nc(SCC(N)=O)n2)cc1 | – | 0.58 µM [rising, single point] | 0.291 µM [rising, partial curve, poor fit]
53 | CNC(=O)/C(C#N)=C/c1ccc(-c2ccccc2[N+](=O)[O-])o1 | -1.49 | 0.366 µM [falling, partial curve, poor fit] | 0.164 µM [falling, full curve, poor fit]
54 | CCOC(=O)c1c(NC(=O)c2ccn(CC)n2)sc2c1CCC2 | 8.73 | – | –
55 | Cc1cc(SCC#N)n2nc(C)c(-c3ccc(Cl)cc3)c2n1 | 20.1 | – | 0.116 µM [rising, full curve, poor fit]
56 | Cc1ccc(S(=O)(=O)N2CCC(C(=O)OCC(=O)NCc3ccco3)CC2)cc1C | 8.03 | 29.1 µM [falling, single point] | –
57 | O=C(CCCn1c(=S)[nH]c2cc3c(cc2c1=O)OCO3)NCc1ccco1 | 20 | – | –
58 | COc1ccc(NC(=O)c2cccnc2Nc2ccccc2)cc1 | -35.9 | – | 0.82 µM [falling, full curve]
59 | Fc1ccc2nc3n(c2c1F)CCCCCC3 | -4.23 | 5.17 µM [rising, single point] | –
